Reference: PMC11069427

Test system: MdWOX4-1
Test: EMSA
Settings: Light Shift Chemiluminescent EMSA Kit (Thermo); pH and temperature not stated. A mutant probe ARF3-Bio-mut; recombinant protein; protein details: GST (pGEX-4T-1); label: biotin

TAATCATACTCGGTAGCCATTAATCATCCACGC (double strand) [LBD16-2-Bio-MdWOX probe]
binding result: binds

The exact form of at least one protein or probe is not confirmed.
